# Source: patent US20180071413A1 (INSERM INSTITUT NATIONAL DE LA SANTE ET DE LA RECHERCHE …, published 2018)
# Chains of the proteins cited; added tags and fusions are not shown. Residues count along the entry.
# UniProt Q9NZQ7, residues 19-290: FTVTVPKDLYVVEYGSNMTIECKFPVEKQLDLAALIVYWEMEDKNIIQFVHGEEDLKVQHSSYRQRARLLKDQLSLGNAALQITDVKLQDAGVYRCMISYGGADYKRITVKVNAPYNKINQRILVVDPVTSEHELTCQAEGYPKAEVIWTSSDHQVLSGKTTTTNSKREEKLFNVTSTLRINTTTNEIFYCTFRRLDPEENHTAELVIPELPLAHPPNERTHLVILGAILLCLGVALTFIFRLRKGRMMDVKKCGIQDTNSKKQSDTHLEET
# Results are given in words; binding and its absence hold for the method and conditions named. Some results given as binding are weak or reduced against the parent protein; the word gives no strength.
# Key:
# [1] = target: T1, human PD-L1 (human, UniProt Q9NZQ7 19-290); test: summary of the in vitro cell binding assays on MDA-MB-231 cells
# T1 construct: whole, on cells; Target presented on human breast cancer cell lines; The quantitative assays (IRF, IC50, Kd) used MDA-MB-231 cells; also called CD274; Programmed Cell Death 1 Ligand 1
# [2] = target: T1, human PD-L1; test: saturation binding of ^111In-PD-L1.3.1 on cells, 4 h on ice, non-specific binding (100 nM PD-L1.3.1) subtracted; the cell line is not printed on the sheet (MDA-MB-231 used in the subsequent binding assays)
# [3] = target: T1, human PD-L1; test: radioligand cell binding, 32 pM ^111In-PD-L1.3.1 on confluent breast cancer cells, specific binding after subtraction of 1,000-fold unlabeled excess, gamma counter
# [4] = target: T1, human PD-L1; test: heading of the results section on cell binding assays
# [5] = target: T1, human PD-L1; test: radioligand cell binding, 32 pM ^111In-PD-L1.3.1 for 4 h at 37 °C or on ice on confluent breast cancer cells; non-specific binding (1,000-fold excess of unlabeled PD-L1.3.1) subtracted
# [6] = target: T1, human PD-L1; test: immunohistochemistry on frozen xenograft sections, 10 µg/ml PD-L1.3.1, peroxidase-conjugated rabbit anti-mouse antibody, DAB; 'PD-L1 blanc' is the blank control
# [7] = target: T1, human PD-L1; test: competition on MDA-MB-231 cells, 4 h on ice; increasing unlabeled PD-L1.3.1 against 20 pM ^111In-PD-L1.3.1 (competitor: the labelled form of the same antibody), gamma counting
binding [1],binding [2],binding [3],binding [4],binding [5],binding [6],binding [7],Binder
binds,binds,binds,binds,binds,,,"^111In-DTPA-PD-L1.3.1 (antibody, V domains shown, ITC-DTPA conjugate chelating ^111In; conjugated residues and chain not stated) VH: EVQLQQSGTELVKPGASVKLSCTTSGFNIQDTYMHWVKQRPEQGLEWIGWIDPANGNTKYDPKFQGKATIIADTSSNTAYLQLRGLTSEDTAVYYCARSGVSTAHFDYWGQGTTLTVSS VL: QIVLSQSPAILSASPGEKVTMTCRASSSVSFMHWYQQKPGSSPKPWIYATSNLASGVPTRFSGSGSGTSYSLTLSRVEAEDAATYYCQQWSSYPRTFGGGTKLEIK"
,,,,,binds,binds,"PD-L1.3.1 antibody (unlabeled) (antibody, V domains shown, also called unlabeled PD-L1.3.1) VH: EVQLQQSGTELVKPGASVKLSCTTSGFNIQDTYMHWVKQRPEQGLEWIGWIDPANGNTKYDPKFQGKATIIADTSSNTAYLQLRGLTSEDTAVYYCARSGVSTAHFDYWGQGTTLTVSS VL: QIVLSQSPAILSASPGEKVTMTCRASSSVSFMHWYQQKPGSSPKPWIYATSNLASGVPTRFSGSGSGTSYSLTLSRVEAEDAATYYCQQWSSYPRTFGGGTKLEIK"
